# These are yes or no findings as the source states them, for the method shown. In cells and extracts the contact can be indirect. Some results given as binding are weak or reduced against the parent protein; the word gives no strength. For part of these data: Sequences can lack the tags named with a protein.
# Protein sequences, listed by entry. Tags and fused reporters are not part of them.
# UniProt Q92847: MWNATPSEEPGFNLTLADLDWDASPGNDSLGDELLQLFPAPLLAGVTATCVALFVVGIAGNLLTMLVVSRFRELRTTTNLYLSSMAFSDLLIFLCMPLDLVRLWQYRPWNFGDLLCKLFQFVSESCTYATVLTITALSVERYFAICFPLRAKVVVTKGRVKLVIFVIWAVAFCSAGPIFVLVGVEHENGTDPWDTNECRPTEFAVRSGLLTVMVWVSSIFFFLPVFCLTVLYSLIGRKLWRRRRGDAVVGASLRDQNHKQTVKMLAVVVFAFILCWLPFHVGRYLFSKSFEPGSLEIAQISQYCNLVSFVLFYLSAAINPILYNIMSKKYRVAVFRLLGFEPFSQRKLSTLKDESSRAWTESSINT
# T1: 3xFlag-tagged human melanocortin receptor accessory protein 2 (MRAP2-3Flag) (human) (UniProt Q96G30)
# T1 sequence: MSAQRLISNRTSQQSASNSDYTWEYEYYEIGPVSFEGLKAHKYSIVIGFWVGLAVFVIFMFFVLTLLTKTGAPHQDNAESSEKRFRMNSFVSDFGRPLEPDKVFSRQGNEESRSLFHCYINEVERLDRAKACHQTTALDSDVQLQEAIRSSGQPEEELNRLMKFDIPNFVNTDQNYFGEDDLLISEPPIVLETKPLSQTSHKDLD
# B1: 3xFlag-tagged human melanocortin receptor accessory protein 2 (MRAP2-3Flag) (protein, UniProt Q96G30 1-205)
# chain: T1 sequence
# B2: MRAP2-SmlBit (protein, UniProt Q96G30 1-205)
# chain: T1 sequence
# Experiments:
# [1] = molecular target: T1, 3xFlag-tagged human melanocortin receptor accessory protein 2 (MRAP2-3Flag) (human); assay: co-IP; HEK293T cells transfected with 3HA-GHSR1a and human MRAP2-3Flag; lysis in 0.1% n-dodecyl-β-maltoside in PBS; IP with anti-HA or anti-Flag and protein G dynabeads, 4 °C; western blot with anti-HA or anti-Flag; beads alone as control
# [2] = molecular target: 3 hemagglutinin (HA)-tagged growth hormone secretagogue receptor 1a (3HA-GHSR1a) (UniProt Q92847); assay: as above
# 3HA-GHSR1a-LgBit = 3HA-GHSR1a-LgBit (UniProt Q92847); assay: split reporter; NanoBit assay in live CHO cells, fusions expressed from the weak HSV-TK promoter; luminescence read 5 min after adding the substrate
molecule,measurement,setting,value
3 hemagglutinin (HA)-tagged growth hormone secretagogue receptor 1a (3HA-GHSR1a) (from UniProt Q92847 1-366),binding,[1],binds
B1,binding,[2],binds
B2,binding,3HA-GHSR1a-LgBit,binds

# Source: article PMC5620068
